Measured values as given in patent US20210139598A1.
Results are given in words; binding and its absence hold for the method and conditions named. Some binding calls cover weakened binding; strength is not graded here.

Sequences of proteins named here, by UniProt entry; tags and fusion partners are left off. A change or cut given only in a name is not applied to a line headed by its entry. Residues count along the entry.
UniProt P25942: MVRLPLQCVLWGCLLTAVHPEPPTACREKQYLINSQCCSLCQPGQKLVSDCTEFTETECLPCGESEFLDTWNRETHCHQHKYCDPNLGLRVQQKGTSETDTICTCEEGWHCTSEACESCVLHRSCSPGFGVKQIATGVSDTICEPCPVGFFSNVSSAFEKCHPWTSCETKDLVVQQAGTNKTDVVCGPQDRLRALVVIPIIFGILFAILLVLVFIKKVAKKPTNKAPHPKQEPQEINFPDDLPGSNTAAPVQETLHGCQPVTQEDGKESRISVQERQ
UniProt P27548, residues 112-260: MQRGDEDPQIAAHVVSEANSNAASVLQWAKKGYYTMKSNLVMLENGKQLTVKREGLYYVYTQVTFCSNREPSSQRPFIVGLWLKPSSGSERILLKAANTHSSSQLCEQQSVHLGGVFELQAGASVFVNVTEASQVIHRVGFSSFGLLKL

Columns and labels:
[1] = target: human CD40, immobilized (SPR of FIG. 2) (human) (UniProt P25942); assay: SPR, immobilized human CD40, soluble CD40L (FIG. 2)
[2] = target: human CD40, immobilized (SPR of FIG. 2) (human) (UniProt P25942); assay: SPR, immobilized human CD40, soluble CD40L titrated from 33 to 0.5 nM

binding [1]: binds | binding [2]: binds
Substance: mouse CD40L (from UniProt P27548 112-260) (ligand)
